Experimental data reported in publication PMC8279952.
Results are given in words; binding and its absence hold for the method and conditions named. Binding seen in cells or lysates may run through a third protein. Here binding means that the protein was enriched with, or labelled near, the bait; the list need not be complete. Sequences can lack the tags named with a protein.

Protein sequences, listed by entry. Tags and fused reporters are not part of them.
UniProt P37913: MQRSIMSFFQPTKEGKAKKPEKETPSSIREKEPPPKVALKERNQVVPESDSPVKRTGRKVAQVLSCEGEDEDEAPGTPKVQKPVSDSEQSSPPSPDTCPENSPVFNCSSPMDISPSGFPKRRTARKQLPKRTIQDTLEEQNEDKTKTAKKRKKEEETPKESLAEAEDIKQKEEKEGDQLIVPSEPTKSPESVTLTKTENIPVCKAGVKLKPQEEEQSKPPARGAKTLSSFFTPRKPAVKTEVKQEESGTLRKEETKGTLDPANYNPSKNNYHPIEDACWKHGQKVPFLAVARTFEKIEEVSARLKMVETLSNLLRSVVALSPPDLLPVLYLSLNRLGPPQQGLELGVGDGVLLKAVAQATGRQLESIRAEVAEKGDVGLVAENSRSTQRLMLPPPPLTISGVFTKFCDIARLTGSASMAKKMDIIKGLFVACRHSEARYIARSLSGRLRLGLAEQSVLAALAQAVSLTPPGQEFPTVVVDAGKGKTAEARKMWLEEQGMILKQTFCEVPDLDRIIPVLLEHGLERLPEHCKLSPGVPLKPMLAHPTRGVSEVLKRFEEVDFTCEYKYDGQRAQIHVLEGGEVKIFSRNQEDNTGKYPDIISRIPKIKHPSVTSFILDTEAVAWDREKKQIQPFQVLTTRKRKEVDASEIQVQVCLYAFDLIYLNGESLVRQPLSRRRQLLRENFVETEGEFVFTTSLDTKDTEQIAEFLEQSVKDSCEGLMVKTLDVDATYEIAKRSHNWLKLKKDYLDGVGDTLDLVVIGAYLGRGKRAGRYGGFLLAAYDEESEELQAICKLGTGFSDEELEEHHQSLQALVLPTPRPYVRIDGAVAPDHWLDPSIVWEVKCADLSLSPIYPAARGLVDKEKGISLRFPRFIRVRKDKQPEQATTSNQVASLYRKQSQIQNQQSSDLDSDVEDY

Biological target: T1, Uhrf1-3xFLAG (endogenously tagged E3 ubiquitin protein ligase Uhrf1) (mouse (endogenous in mouse ESCs)) (UniProt Q8VDF2)
T1 sequence: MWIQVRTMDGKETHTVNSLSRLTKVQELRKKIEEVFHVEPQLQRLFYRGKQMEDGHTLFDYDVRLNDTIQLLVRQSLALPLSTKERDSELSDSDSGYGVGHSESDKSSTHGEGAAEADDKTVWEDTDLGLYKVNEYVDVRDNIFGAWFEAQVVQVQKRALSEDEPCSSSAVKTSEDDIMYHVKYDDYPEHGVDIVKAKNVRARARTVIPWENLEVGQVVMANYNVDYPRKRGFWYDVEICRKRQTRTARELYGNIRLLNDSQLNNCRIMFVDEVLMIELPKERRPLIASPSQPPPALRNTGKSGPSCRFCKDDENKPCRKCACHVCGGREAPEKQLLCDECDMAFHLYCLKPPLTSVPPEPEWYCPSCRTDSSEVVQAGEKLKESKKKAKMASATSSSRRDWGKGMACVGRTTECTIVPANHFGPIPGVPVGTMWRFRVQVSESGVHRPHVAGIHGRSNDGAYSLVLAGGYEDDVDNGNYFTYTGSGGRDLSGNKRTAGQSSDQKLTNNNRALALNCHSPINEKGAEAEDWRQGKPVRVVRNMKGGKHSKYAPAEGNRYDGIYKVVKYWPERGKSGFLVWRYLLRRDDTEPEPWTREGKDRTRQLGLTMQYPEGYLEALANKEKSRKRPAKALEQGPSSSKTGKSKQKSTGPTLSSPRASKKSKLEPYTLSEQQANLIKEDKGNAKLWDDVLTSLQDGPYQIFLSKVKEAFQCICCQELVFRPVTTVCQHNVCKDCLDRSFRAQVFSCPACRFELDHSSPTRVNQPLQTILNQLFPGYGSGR
Test: affinity purification with mass spectrometry; rapid immunoprecipitation MS; 50 million DKO0 or TKOL Uhrf1-FLAG ESCs crosslinked with 1% formaldehyde for 8 min, sonicated; anti-Flag antibody on protein G beads overnight; 10 washes with RIPA buffer (0.5 M LiCl); compared with untagged control; three biological replicates

- binding: binds
Substance: Lig1 (from UniProt P37913 1-916)
